In paper PMC5222340, “The Arginine Pairs and C-Termini of the Sso7c4 from Sulfolobus solfataricus Participate in Binding and Bending DNA”:
Residue numbers refer to the chain shown, from its start. Construct, isoform or probe ends are uncertain for at least one entry. For part of these data: Weaker means in comparison with the reference protein, sequence or condition of that experiment. Where a protein sequence is shown, tags need not be part of it. For part of these data: At least one verdict rests on a figure or table, not on a statement of the authors.

Assays:
[1] = molecular target: T1, C-terminally truncated Sso7c4 del49-54 (Sulfolobus solfataricus P2) (UniProt A0A0E3K9N8); assay: bulk FRET; conditions: saturating protein, distance unchanged; 20 mM Tris-Cl pH 7.5, no added salt, 25 C; recombinant protein; residues 1-48; label: Cy3 and Cy5 on the 5' ends
T1 sequence (looked up): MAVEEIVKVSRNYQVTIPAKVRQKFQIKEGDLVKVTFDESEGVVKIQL

[2] = molecular target: T2, Sso7c4 wild-type (Sulfolobus solfataricus P2) (UniProt A0A0E3K9N8); assay: bulk FRET; conditions: saturating protein, little distance change; 20 mM Tris-Cl pH 7.5, no added salt, 25 C; recombinant protein; label: Cy3 and Cy5 on the 5' ends
T2 sequence (looked up, limits assumed): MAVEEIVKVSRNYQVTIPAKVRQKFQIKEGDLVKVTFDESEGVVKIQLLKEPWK

[3] = molecular target: T3, Sso7c4-R11A/R22A (Sulfolobus solfataricus P2) (UniProt A0A0E3K9N8); assay: fluorescence polarization; conditions: no saturation up to 4.33 mM protein; 20 mM Tris-Cl pH 7.5, no added salt, 25 C; FP with 100 nM FAM-DNA, 1 h at room temperature; recombinant protein; label: 5'-FAM
T3 sequence (looked up, limits assumed): T2 sequence (looked up, limits assumed) with R11A, R22A

Row | Sequence | binding result [1] | binding result [2] | binding result [3]
1 | CGTGCTCTGCGATCTCTTCG (double strand) [20 bp FRET DNA] | binds | binds | –
2 | CCAACACTGGCCAGTGTTGG (double strand) [5'-FAM-20-bp DNA] | – | – | binds more weakly
